Measured values: PMC8786951 (Scientific Reports, 2022)

Test: peptide made by a vendor
Details: whole synthesis
[1] = 214nm, one disulfide bridge, sequence written open

Substance | final HPLC purity [1] | also measured
AVIPVSSPEPMEEASALQLLPGKI-NH2 |  | final HPLC purity (220nm): 95.083%
Met-Arg-Tyr-Met-Gly-Jle-Cys-Met-Lys-Lys-Gln-Tyr-Asn-Asn-Phe-lle-Pro-Phe-Pro-Cys-Leu-Arg-Se-NH2 |  | final HPLC purity (RP-HPLC, UV 214 nm or 220 nm (vendor certificate of analysis), Trifluoroacetate, one disulfide bridge, sequence written open): 98.39%
SHIRCLVNVIACY | 95.549% | 
SHVMCLVNLISCF | 95.039% | 
SHYNSMCMFNVVACY | 95.308% | 
TYSSMCMFNVVACY | 95.005% | 

Plain letter strings leave the end groups untold.
